PubChem BioAssay AID1259254, NCATS, 2017
Aim: 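Genome-wide screen for genes that prevent DNA re-replication in cancer cells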 (primary screen). Cells: human HCT116 colorectal cancer cells. Reagent: single siRNA against human genes. Time to read-out: 3 days. Measurement: 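Imaged Hoechst DNA stain sorts each cell into a cycle phase by DNA amount; per plate, G2 fraction set to 0% for non-targeting and 100% for GMNN siRNA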. Reading the numbers: G2 robust z-score: higher = more G2 cells, more excess DNA replication. Active means: 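An siRNA counts as active if its G2 robust z-score lies at least 5 MADs above the screen median; here such calls match roughly 38% of GMNN control or more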.
Shown is an unselected part of about 59,000 deposited reagents. About 1,550 of them (2.6%) were called active. 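G2 share is only a proxy for re-replication; each gene was hit by three separate siRNAs, and active genes were retested.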 A number with no mark means an inactive call. Not all columns of the deposit are shown. The record does not give: the amount of reagent.

gene symbol,PubChem SID,G2 robust z-score
PTPN13,SID160715376,0.101
PTPN13,SID160715377,0.129
PTPN13,SID160715378,-0.35
METTL21C,SID160760651,-0.757
METTL21C,SID160760652,0.132
METTL21C,SID160760653,0.252
HNRNPAB,SID160775118,-0.592
HNRNPAB,SID160775119,0.603
HNRNPAB,SID160775120,-0.0531
ACBD5,SID160753986,0.422
ACBD5,SID160753987,-0.373
ACBD5,SID160753988,-0.536

Ordered by “G2 robust z-score” (low to high): 5 of the entries above
gene symbol,PubChem SID,G2 robust z-score
METTL21C,SID160760651,-0.757
HNRNPAB,SID160775118,-0.592
PTPN13,SID160715378,-0.35
METTL21C,SID160760652,0.132
METTL21C,SID160760653,0.252

Next records follow:
gene symbol,PubChem SID,G2 robust z-score
FRA10AC1,SID160755681,-0.353
FRA10AC1,SID160755682,-1.15
FRA10AC1,SID160755683,1.6
ROGDI,SID160749067,-0.78
ROGDI,SID160749068,-0.429
ROGDI,SID160749069,2.61
ANO4,SID160755927,-0.817
ANO4,SID160755928,1.97
ANO4,SID160755929,0.528
PSTK,SID160755660,2.13
PSTK,SID160755661,2.4
PSTK,SID160755662,0.986
SLC25A51P1,SID160768162,1.16
SLC25A51P1,SID160768163,-1.12
SLC25A51P1,SID160768164,0.433
WIPI1,SID160742843,-0.712
WIPI1,SID160742844,0.295
WIPI1,SID160742845,-0.97
